# Assay results taken from PMC6361937.
# Sequences of proteins named here, by UniProt entry; tags and fusion partners are left off. A change or cut given only in a name is not applied to a line headed by its entry.
# UniProt P20366: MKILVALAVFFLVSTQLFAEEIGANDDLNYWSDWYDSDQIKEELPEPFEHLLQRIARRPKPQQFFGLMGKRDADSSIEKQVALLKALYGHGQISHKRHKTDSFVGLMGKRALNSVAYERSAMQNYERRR
# UniProt P27017: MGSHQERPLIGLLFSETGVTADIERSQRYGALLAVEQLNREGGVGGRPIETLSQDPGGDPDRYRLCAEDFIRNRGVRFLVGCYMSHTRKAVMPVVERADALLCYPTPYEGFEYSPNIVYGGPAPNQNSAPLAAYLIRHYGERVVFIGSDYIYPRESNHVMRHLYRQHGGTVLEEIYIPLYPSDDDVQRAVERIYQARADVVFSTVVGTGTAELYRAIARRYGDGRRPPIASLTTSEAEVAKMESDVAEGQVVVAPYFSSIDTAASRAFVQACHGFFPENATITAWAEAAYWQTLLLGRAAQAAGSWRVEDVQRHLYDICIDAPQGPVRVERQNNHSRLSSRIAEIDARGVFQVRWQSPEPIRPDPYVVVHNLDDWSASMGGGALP
# No constants are given. Whether binding was seen depends on the method and setting.
# B1: Substance P (peptide, UniProt P20366 58-68)
# peptide: RPKPQQFFGLM
# Molecular target: amidase AmiC (UniProt P27017)
# Assay: MST; RED-NHS labelled AmiC at 31 nM final, increasing concentrations of SP; 50 mM Tris-HCl pH 7.5, 150 mM NaCl, 10 mM MgCl2, 0.05% Tween-20; 25 °C; Monolith NT.115Pico; both purified
binder,measurement,value
B1,binding,no binding
